# Assay results published in the supplement of paper PMC12067093, “Discovery and optimisation of a covalent ligand for TRIM25 and its application to targeted protein ubiquitination” (Chemical Science, 2025).
# Chains of the proteins cited; added tags and fusions are not shown. Lines headed by an entry give the natural chain unless they say otherwise; changes in a name come on top.
# UniProt Q7Z7L1: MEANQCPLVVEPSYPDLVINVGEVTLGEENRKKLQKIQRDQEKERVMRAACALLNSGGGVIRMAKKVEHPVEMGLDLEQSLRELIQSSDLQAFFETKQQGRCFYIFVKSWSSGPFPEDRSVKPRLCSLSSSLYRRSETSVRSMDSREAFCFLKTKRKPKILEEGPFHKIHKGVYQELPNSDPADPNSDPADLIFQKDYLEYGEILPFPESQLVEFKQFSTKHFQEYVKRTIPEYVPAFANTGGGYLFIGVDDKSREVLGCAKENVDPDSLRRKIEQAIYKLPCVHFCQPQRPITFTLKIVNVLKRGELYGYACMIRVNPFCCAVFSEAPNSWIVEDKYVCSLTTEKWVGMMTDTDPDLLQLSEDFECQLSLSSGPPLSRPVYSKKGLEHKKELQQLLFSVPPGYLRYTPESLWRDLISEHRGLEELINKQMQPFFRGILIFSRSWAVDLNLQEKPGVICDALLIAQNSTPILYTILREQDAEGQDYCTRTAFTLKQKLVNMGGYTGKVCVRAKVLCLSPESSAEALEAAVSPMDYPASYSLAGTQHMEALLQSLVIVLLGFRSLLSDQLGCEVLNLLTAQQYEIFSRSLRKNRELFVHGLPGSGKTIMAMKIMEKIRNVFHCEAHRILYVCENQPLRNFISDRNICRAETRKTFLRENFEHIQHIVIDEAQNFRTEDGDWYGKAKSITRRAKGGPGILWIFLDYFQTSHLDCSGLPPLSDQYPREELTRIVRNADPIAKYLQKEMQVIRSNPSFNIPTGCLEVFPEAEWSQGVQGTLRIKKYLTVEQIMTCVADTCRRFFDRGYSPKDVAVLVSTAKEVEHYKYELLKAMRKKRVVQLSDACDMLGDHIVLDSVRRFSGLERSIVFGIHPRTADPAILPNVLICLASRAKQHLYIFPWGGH
# The other results are listed elsewhere or left out.
# Legend:
# Assay in all cases: probe-labelled cysteine peptide fold change vs DMSO (competition) (log2 fold change); higher = less target engagement (more negative = stronger competition)
# Settings in all cases: THP-1, incubation time: 4 h
# [1] = target: SLFN11_Q7Z7L1_842_VVQLSDACDMLGDHIVLDSVR (UniProt Q7Z7L1)
# [2] = target: SLFN11_Q7Z7L1_842_VVQLSDACDMLGDHIVLDSVRR (UniProt Q7Z7L1)
# [3] = target: SLTM_Q9NWH9_107_DCELENQEAHEQDGNDELK (UniProt Q9NWH9)
# [4] = target: SLTM_Q9NWH9_107_DCELENQEAHEQDGNDELKDSEEFGENEEENVHSK (UniProt Q9NWH9)
# [5] = target: SLTM_Q9NWH9_107_KHEADELSGDASVEDDAFIKDCELENQEAHEQDGNDELK (UniProt Q9NWH9)
# SLTM_Q9NWH9_441_CIAHLHR = SLTM_Q9NWH9_441_CIAHLHR (UniProt Q9NWH9)
# 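Further: competitive profiling in live THP-1 cells: cysteine peptides tagged with an iodoacetamide desthiobiotin (IA-DTB) probe, intensity after compound treatment relative to DMSO-treated cells.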
structure (smiles),measurement,setting,value
Cc1cc(C(=O)N2CCCN(C(=O)CCl)CC2)ccc1-c1ccccc1 [compound 10],probe-labelled cysteine peptide fold change,[1]; 10 µM,0.117
same,probe-labelled cysteine peptide fold change,[1]; 50 µM,-0.231
same,probe-labelled cysteine peptide fold change,[2]; 10 µM,0.0644
same,probe-labelled cysteine peptide fold change,[2]; 50 µM,-0.107
same,probe-labelled cysteine peptide fold change,[3]; 10 µM,0.0243
same,probe-labelled cysteine peptide fold change,[3]; 50 µM,0.146
same,probe-labelled cysteine peptide fold change,[4]; 10 µM,0.0565
same,probe-labelled cysteine peptide fold change,[4]; 50 µM,-0.603
same,probe-labelled cysteine peptide fold change,[5]; 10 µM,0.0217
same,probe-labelled cysteine peptide fold change,[5]; 50 µM,-1.37
same,probe-labelled cysteine peptide fold change,SLTM_Q9NWH9_441_CIAHLHR; 10 µM,0.0864
same,probe-labelled cysteine peptide fold change,SLTM_Q9NWH9_441_CIAHLHR; 50 µM,0.245

# Reprinted at random: 2 entries already listed, in no set order.
structure (smiles),measurement,setting,value
Cc1cc(C(=O)N2CCCN(C(=O)CCl)CC2)ccc1-c1ccccc1 [compound 10],probe-labelled cysteine peptide fold change,[3]; 50 µM,0.146
same,probe-labelled cysteine peptide fold change,[5]; 50 µM,-1.37
